Experimental data: article PMC10371073
These are yes or no findings as the source states them, for the method shown. Binding seen in cells or lysates may run through a third protein. Some binding calls cover weakened binding; strength is not graded here.

Chains of the proteins cited; added tags and fusions are not shown.
UniProt P35637: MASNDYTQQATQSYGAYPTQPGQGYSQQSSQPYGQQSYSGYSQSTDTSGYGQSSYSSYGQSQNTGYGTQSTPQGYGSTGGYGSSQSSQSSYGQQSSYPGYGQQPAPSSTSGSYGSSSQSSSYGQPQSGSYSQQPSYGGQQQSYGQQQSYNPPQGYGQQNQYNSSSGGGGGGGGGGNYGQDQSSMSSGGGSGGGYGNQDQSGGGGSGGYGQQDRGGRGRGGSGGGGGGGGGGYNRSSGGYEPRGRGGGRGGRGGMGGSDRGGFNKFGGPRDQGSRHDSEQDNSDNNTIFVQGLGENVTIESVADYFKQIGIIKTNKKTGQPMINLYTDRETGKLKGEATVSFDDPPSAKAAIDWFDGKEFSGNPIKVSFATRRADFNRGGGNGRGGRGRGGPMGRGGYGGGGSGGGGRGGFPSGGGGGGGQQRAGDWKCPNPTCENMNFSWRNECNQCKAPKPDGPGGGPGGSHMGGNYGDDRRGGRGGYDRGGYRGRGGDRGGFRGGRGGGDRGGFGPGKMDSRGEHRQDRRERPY

How the values were obtained:
[1] = molecular target: Fused in Sarcoma (FUS), endogenous wild type (human (endogenous in HEK293 and human fibroblasts)) (UniProt P35637); assay: proximity ligation; in situ Duolink PLA on fixed, permeabilised cells (control and ALS patient-derived fibroblasts; iPSC-derived motor neurons), primary antibodies 1:100 overnight; with or without glucose oxidase (GO)
[2] = molecular target: Fused in Sarcoma (FUS), endogenous wild type (human (endogenous in HEK293 and human fibroblasts)) (UniProt P35637); assay: co-IP; endogenous FUS precipitated with anti-FUS antibody and protein A/G PLUS agarose beads from HEK293 lysate (0.2% NP-40, 150 mM NaCl, 25 mM Tris-HCl, 0.1% SDS), immunoblot for Lig3; cells with or without glucose oxidase (GO)

binding [1]: binds
binding [2]: binds
B1: DNA Ligase IIIα (Lig3), mitochondrial form mtLig3 (enzyme, UniProt P49916 43-1009)
chain: LLHGHPLFLRRKPVLSFQGSHLRSRATYLVFLPGLHVGLCSGPCEMAEQRFCVDYAKRGTAGCKKCKEKIVKGVCRIGKVVPNPFSESGGDMKEWYHIKCMFEKLERARATTKKIEDLTELEGWEELEDNEKEQITQHIADLSSKAAGTPKKKAVVQAKLTTTGQVTSPVKGASFVTSTNPRKFSGFSAKPNNSGEAPSSPTPKRSLSSSKCDPRHKDCLLREFRKLCAMVADNPSYNTKTQIIQDFLRKGSAGDGFHGDVYLTVKLLLPGVIKTVYNLNDKQIVKLFSRIFNCNPDDMARDLEQGDVSETIRVFFEQSKSFPPAAKSLLTIQEVDEFLLRLSKLTKEDEQQQALQDIASRCTANDLKCIIRLIKHDLKMNSGAKHVLDALDPNAYEAFKASRNLQDVVERVLHNAQEVEKEPGQRRALSVQASLMTPVQPMLAEACKSVEYAMKKCPNGMFSEIKYDGERVQVHKNGDHFSYFSRSLKPVLPHKVAHFKDYIPQAFPGGHSMILDSEVLLIDNKTGKPLPFGTLGVHKKAAFQDANVCLFVFDCIYFNDVSLMDRPLCERRKFLHDNMVEIPNRIMFSEMKRVTKALDLADMITRVIQEGLEGLVLKDVKGTYEPGKRHWLKVKKDYLNEGAMADTADLVVLGAFYGQGSKGGMMSIFLMGCYDPGSQKWCTVTKCAGGHDDATLARLQNELDMVKISKDPSKIPSWLKVNKIYYPDFIVPDPKKAAVWEITGAEFSKSEAHTADGISIRFPRCTRIRDDKDWKSATNLPQLKELYQLSKEKADFTVVAGDEGSSTTGGSSEENKGPSGSAVSRKAPSKPSASTKKAEGKLSNSNSKDGNMQTAKPSAMKVGEKLATKSSPVKVGEKRKAADETLCQTKVLLDIFTGVRLYLPPSTPDFSRLRRYFVAFDGDLVQEFDMTSATHVLGSRDKNPAAQQVSPEWIWACIRKRRLVAPC
